In all, about 340,000 compounds went through this assay and about 6,200 (1.8%) were called active. This list was built around the results that the source calls inconclusive (neither active nor inactive); the mix of calls is not that of the screen. Calls follow the shape of the dose curve; as a rule, active = well fitted activation curve with a large enough effect; inconclusive = small, poorly fitted or top-dose-only effect; inactive = no such curve, though single readings can be large or run the other way. A potency beside an inconclusive call is a rough fit, not a confirmed value.
Assay: A quantitative high throughput screen for small molecules that induce DNA re-replication in SW480 colon adenocarcinoma cells. Also: nearly all actives have a fitted effect of over 55% in size. As to re-replication activation: % of control where 0% means no effect.
Details: Hoechst DNA content imaging, 48 h; re-replication activation: at 46.1 µM (top of the series) unless noted
Outline: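 Treated cells incubate 48 hr (37 C, 5% CO2), are stained 40 min with Hoechst, and nuclear fluorescence is enumerated; a rise in nuclei with high DNA signal marks re-replication.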
Potency is read from the fitted curve at half-maximal effect.

| SMILES | Potency | re-replication activation |
| --- | --- | --- |
| NCCOc1ccc(C23CC4CC(CC(C4)C2)C3)cc1 | inactive | – |
| CCOC(=O)CSC(=S)NC(=O)c1ccc(OC)cc1 | inconclusive: 14.6 µM [activator, partial curve, poor fit] | – |
| CCc1cc(=O)oc2cc(C)cc(OCC(=O)NCC(O)c3ccccc3)c12 (stereo not drawn) | inconclusive: 20.6 µM [activator, single point] | – |
| CCOC(=O)C1CCCN(C(=O)COc2ccc(S(=O)(=O)N3CCOCC3)cc2)C1 (stereo not drawn) | inactive | – |
| CC(=O)Nc1nc(-c2ccc3c(c2)CCN3C(=O)C2CC2)c(C)s1 | inconclusive: 10.3 µM [activator, partial curve, poor fit] | – |
| CC(=O)N/C(=N\c1nc(C)cc(C)n1)Nc1ccc2ccccc2c1 | inactive | – |
| CC(C)(C)C(=O)NC(=S)Nc1ccccc1N1CCCC1 | inactive | – |
| CCC(=C(c1ccc(OC)cc1)c1ccc(OC)cc1)c1cn(CC(O)CN2CCN(C)CC2)c2ccccc12 (stereo not drawn) | inconclusive: 16.4 µM [activator, partial curve, poor fit] | – |
| CC(=NNC(=S)Nc1cccc(Cl)c1)c1ccccn1 | inconclusive: 3.26 µM [activator, partial curve, poor fit] | – |
| N#C/C(=C(/O)COC(=O)COc1ccc(Cl)cc1)c1nc2ccccc2[nH]1 | active: 29.1 µM | – |
| O=C(N/N=C/c1cc2cc3c(cc2nc1Cl)OCCO3)c1ccccc1O | inconclusive: 0.259 µM [activator, partial curve, poor fit] | – |
| CSCC[C@H](NC(=O)OC(C)(C)C)C(=O)N/N=C/c1cccc2cccnc12 | inconclusive: 8.2 µM [activator, partial curve] | – |
| CCOc1ccc(NC(=O)NCCN2CCN(c3cccc(C)c3C)CC2)cc1 | inconclusive: 29.1 µM [activator, single point] | – |
| CCCOc1ccc([N+](=O)[O-])cc1C1NC(=S)NC(c2ccccc2)=C1C(=O)OCC (stereo not drawn) | inconclusive: 18.4 µM [activator, single point] | – |
| CCOc1ccccc1NC(=O)CSc1nnnn1-c1ccc(C(=O)OC)cc1 | inactive | – |
| CC1(C)Cc2nc3oc4c(=O)n(CC(=O)Nc5cccc(Cl)c5)cnc4c3cc2CO1 | active: 18.4 µM | – |
| Cc1cc(NC(=O)c2ccc(Cl)cc2Cl)n(CCC#N)n1 | inconclusive: 32.6 µM [activator, partial curve, poor fit] | – |
| COc1ccc(Nc2nccc(-c3ccc(C#N)cc3)n2)cc1 | inconclusive: 16.4 µM [activator, partial curve, poor fit] | – |
| COc1ccc(OC)c(C2C(C(=O)Nc3nc4ccccc4s3)=C(C)NC3=C2C(=O)CCC3)c1 (stereo not drawn) | inconclusive: 0.58 µM [activator, full curve, poor fit] | – |
| Cc1nn(-c2ccccc2)c2sc(C(=O)N(Cc3ccco3)C(C)C(=O)NC(C)(C)C)cc12 (stereo not drawn) | inconclusive: 20.6 µM [activator, single point] | – |
| Cc1ccc(Sc2cnn(-c3ccccc3)c(=O)c2Cl)cc1 | inconclusive: 29.1 µM [activator, single point] | – |
| CCOC(=O)C1C(=O)C=C(/C=C/c2ccccc2)CC1c1ccc(Cl)cc1 (stereo not drawn) | inconclusive: 23.1 µM [activator, single point] | – |
| Cc1ccc(CNCC(O)(c2ccccc2)c2ccc(Cl)cc2)cc1 (stereo not drawn) | inconclusive: 18.4 µM [activator, single point] | – |

| SMILES | Potency | re-replication activation |
| --- | --- | --- |
| COc1ccc(NC(=O)Nc2cccc3c2O[C@H](CN(C)S(=O)(=O)c2ccccc2)[C@@H](C)CN([C@H](C)CO)C3=O)cc1 | – | inactive: 11.1% [at 9.22 µM] |
| Cc1cc(C)n(C(C)Sc2ccccc2)n1 (stereo not drawn) | inactive | – |
| O=C(COc1ccc(Cl)cc1)N1N=C(c2cccs2)CC1c1ccco1 (stereo not drawn) | inactive | – |
| Cc1sc2ncn(CC(=O)NCC(=O)N(C)C3CCCCC3)c(=O)c2c1C | inactive | – |
| Cc1cc(C)n(-c2ccc3cccc(NS(C)(=O)=O)c3n2)n1 | inconclusive: 3.26 µM [activator, partial curve, poor fit] | – |
| COc1cc(C2CC(c3c(C)cc(C)[nH]c3=O)=NN2c2ccccc2F)cc(OC)c1OC (stereo not drawn) | inconclusive: 16.4 µM [activator, partial curve] | – |
| COc1ccc(CC(=O)Nc2nc(-c3cccnc3)cs2)cc1 | inconclusive: 32.6 µM [activator, partial curve, poor fit] | – |
| COc1ccc(/C=N\NC(=O)c2cc3c(ccc4ccccc43)o2)cc1O | inconclusive: 25.9 µM [activator, single point] | – |
| Cn1c(SCC(=O)N(C2CCCCC2)C2CCCCC2)nnc1-c1cccs1 | inconclusive: 29.1 µM [activator, single point] | – |
| CC(C)N1CCN(C(=O)c2ccc([N+](=O)[O-])cc2)CC1 | inactive | – |
| CCN(CC)C(=O)[C@H]1C[C@H](CC(=O)NCc2cccc(C(F)(F)F)c2)C(=O)N2CCc3c([nH]c4cc(CCC(=O)N(C)C)ccc34)[C@]12C | inconclusive: 1.16 µM [activator, single point] | – |
| CCOC(=O)CSc1nc2ccccc2c(=O)n1CC1CCCC1 | inconclusive: 29.1 µM [activator, single point] | – |
| COc1ccc(C(=O)CCN2CCCC(C)C2)cc1 (stereo not drawn) | inconclusive: 11.6 µM [activator, partial curve, poor fit] | – |
| CC1CCCCC1Nc1nc2ccc(Cl)cc2n2cnnc12 (stereo not drawn) | inconclusive: 0.0651 µM [activator, full curve, poor fit] | – |
| O=C(COC(=O)/C=C/c1cccs1)Nc1nc(-c2ccccc2)cs1 | inconclusive: 0.0651 µM [activator, full curve, poor fit] | – |
| Cc1c(NC(=O)C(C)N(c2ccccc2)S(C)(=O)=O)c(=O)n(-c2ccccc2)n1C (stereo not drawn) | inactive | – |
| CCN1C(=O)C(=O)N(CC(=O)c2[nH]c(C)c(C(C)=O)c2C)C1=O | inconclusive: 1.84 µM [activator, full curve, poor fit] | – |
| O=C(N/N=C/c1ccccc1[N+](=O)[O-])c1ccc2c(c1)OCCO2 | inactive | – |
| Cc1ccnc(NC(=O)c2ccc([N+](=O)[O-])s2)c1 | inconclusive: 10.3 µM [activator, partial curve] | – |
| COc1ccc(NC(=O)N2CCCC(C(=O)NCc3ccccc3F)C2)cc1 (stereo not drawn) | inconclusive: 0.058 µM [activator, full curve, poor fit] | – |
| CC(=O)Cc1cc(O)c2ccccc2c1OC(=O)c1ccccc1 | inconclusive: 29.1 µM [activator, single point] | – |
| Cc1cc(C)cc(N(CCC#N)C(=O)COC(=O)CN2C(=O)NC(C)(C)C2=O)c1 | inconclusive: 3.66 µM [activator, partial curve, poor fit] | – |
| COc1ccccc1CNC(=O)C1CC(c2cccc([N+](=O)[O-])c2)=NO1 (stereo not drawn) | inconclusive: 18.4 µM [activator, single point] | – |

Compounds from the list above that have a cyano group, in the order listed:

| SMILES | Potency | re-replication activation |
| --- | --- | --- |
| N#C/C(=C(/O)COC(=O)COc1ccc(Cl)cc1)c1nc2ccccc2[nH]1 | active: 29.1 µM | – |
| Cc1cc(NC(=O)c2ccc(Cl)cc2Cl)n(CCC#N)n1 | inconclusive: 32.6 µM [activator, partial curve, poor fit] | – |
| COc1ccc(Nc2nccc(-c3ccc(C#N)cc3)n2)cc1 | inconclusive: 16.4 µM [activator, partial curve, poor fit] | – |
| Cc1cc(C)cc(N(CCC#N)C(=O)COC(=O)CN2C(=O)NC(C)(C)C2=O)c1 | inconclusive: 3.66 µM [activator, partial curve, poor fit] | – |

The list goes on:

| SMILES | Potency | re-replication activation |
| --- | --- | --- |
| COc1cc(/C=C(/C#N)C(=O)Nc2ccccc2)ccc1OCc1ccc(C(=O)O)cc1 | inactive | – |
| CN1/C(=C\C(=O)c2cccs2)Sc2ccccc21 | active: 14.6 µM | – |
| O=C(NC1CCCCCC1)c1cccc(COCC(F)(F)F)c1 | inactive | – |
| Cc1cnc(NC(=O)CCCc2nc3ccccc3s2)s1 | inconclusive: 29.1 µM [activator, single point] | – |
| Cc1ccc(C(=O)NC(=S)N2CCN(c3ccccc3F)CC2)cc1 | active: 23.1 µM | – |
| COc1ccc(C(=O)CCS(=O)(=O)c2ccc(C)cc2)cc1 | inconclusive: 20.6 µM [activator, single point] | – |
| Cc1ccc(S(=O)(=O)N(CC(=O)Nc2ccc(C)cc2C)C(=O)N2CCN(C)CC2)cc1 | inactive | – |
| Cc1ccn2c(Nc3ccccc3)c(-c3ccccn3)nc2c1 | inconclusive: 16.4 µM [activator, single point] | – |
| COc1cc(COCC(O)CN2C(C)CCCC2C)cc(OC)c1OC (stereo not drawn) | inactive | – |
| N#CC1=C(SCC(=O)NC23CC4CC(CC(C4)C2)C3)NC(=O)C(C#N)C12CCCCC2 (stereo not drawn) | inactive | – |
| COc1ccc(C)cc1NC(=O)CCNC(=O)Cn1ccc2ccccc2c1=O | inactive | – |
| CC(C)(C)NC(=O)C(=O)NNC(=O)c1cccc(Br)c1 | inconclusive: 0.517 µM [activator, partial curve, poor fit] | – |
| CCc1nnc(NS(=O)(=O)c2ccc(NC(=O)c3ccc(Br)cc3)cc2)s1 | inconclusive: 11.6 µM [activator, partial curve, poor fit] | – |
| N=C1/C(=C\c2ccc(Br)o2)C(=O)N=C2SC(CC(=O)N3CCCCC3)=NN12 | inactive | – |
| CCOC(=O)c1c(C)[nH]c(C(=O)OCC(=O)Nc2ccc(OC)c(Cl)c2)c1C | inconclusive: 20.6 µM [activator, single point] | – |
| O=C(CCn1cnc2ccccc21)N/N=C/C=C/c1ccccc1 | inactive | – |
| CCOC(=O)c1cnc(N2CCOCC2)[nH]c1=O | inconclusive: 18.4 µM [activator, single point] | – |
| Cn1c(=O)[nH]c(=O)c2c1nc(NCCCO)n2CCCc1ccccc1 | inconclusive: 20.6 µM [activator, partial curve, poor fit] | – |
| CCc1ccc(/C=C/C(=O)c2ccc(N3CCOCC3)cc2)cc1 | inactive | – |
| O=C1C=CC(=O)C(CNc2ccc(C(=O)OCc3ccccc3)cc2)=C1 | inconclusive: 32.6 µM [activator, partial curve, poor fit] | – |
| Cc1cnc(N=Nc2ccccc2)[nH]1 | inconclusive: 18.4 µM [activator, single point] | – |
| CC1(C)CC(=O)C(C=NCCN2CCN(CCCCS(=O)(=O)O)CC2)=C(O)C1 | inactive | – |

From PubChem BioAssay AID624297 (National Center for Advancing Translational Sciences (NCATS), 2012)
